Laboratory results taken from patent US20230150952A1, “TYPE 2 RYANODINE RECEPTOR ACTIVITY INHIBITOR” (JUNTENDO EDUCATIONAL FOUNDATION, priority 2020, published 2023).
Some results were stated once for a whole list of compounds, not compound by compound.

Experiments:
[1] = system: RyR1 R2163C pathogenic mutation; assay: check of effect on RyR1 by use of a RyR1 R2163C pathogenic mutation; assay type: cell-based
RyR3 = RyR3 (Homo sapiens, UniProt Q15413); assay: check of effect on RyR3; assay type: cell-based

Row | Structure (SMILES) | inhibitory effect on RyR1 activity [1] | inhibitory effect on RyR3 activity (RyR3)
1 | COc1cccc(-c2nnn(CC(=O)N(C)c3ccc(F)c(OC)c3)n2)c1 [Compound 53] | not confirmed | –
2 | CCN(C(=O)Cn1nnc(-c2ccccc2)n1)c1ccccc1 [Compound 58] | not confirmed | –
3 | COc1ccc(N(C)C(=S)Cn2nnc(-c3cccc(F)c3)n2)cc1 [Compound 69] | not confirmed | not confirmed
4 | CN(C(=O)Cn1nnc(-c2cccc(F)c2)n1)c1ccc(F)cc1 [Compound 51] | not confirmed | not confirmed
5 | CN(C(=S)Cn1nnc(-c2cccc(F)c2)n1)c1ccc(F)cc1 [Compound 70] | not confirmed | not confirmed
6 | COc1ccc(N(C)C(=O)Cn2nnc(-c3cccc(OC)c3)n2)cc1 [Compound 48] | not confirmed | not confirmed
7 | COc1cccc(-c2nnn(CC(=O)N(C)c3ccc(F)cc3)n2)c1 [Compound 49] | not confirmed | not confirmed
8 | CN(C(=O)Cn1nnc(-c2cc(F)cc(F)c2)n1)c1ccc(F)cc1 [Compound 57] | not confirmed | not confirmed
9 | COc1ccc(N(C)C(=O)Cn2nnc(-c3cccc(F)c3)n2)cc1 [Compound 50] | not confirmed | not confirmed
10 | COc1ccc(N(C)C(=S)Cn2nnc(-c3cccc(OC)c3)n2)cc1 [Compound 67] | not confirmed | not confirmed
11 | COc1cccc(-c2nnn(CC(=S)N(C)c3ccc(F)cc3)n2)c1 [Compound 68] | not confirmed | not confirmed
